For 1 molecule, binding results are on record in patent US8703143.

No constants are given. Whether binding was seen depends on the method and setting. A result given as binding can be weak or reduced; the word gives no strength.

The target of this test is rec FN 2-11 (B+) (human). The test can be described thus: immunoblot of recombinant FN proteins expressed in E. coli. (In western blotting, separated proteins are transferred to a membrane and probed.)

B1: scFv CGS-1 (scFv, V domains shown)
VH: QVQLVESGGGLVQPGGSLRLSCAVSGFTFSSYAMSWVRQAPGKGLEWVSAISGSGGSTYYADSVKGRFTISRDNSKNTLYLQMNSLRAEDTAVYYCARSLPKWGQGTLVTVSR
VL: SSELTQDPAVSVALGQTVRITCQGDSLRSYYASWYQQKPGQAPVLVTYGKNNRPSGIPDRFSGSSSGNTASLTITGAQAEDEADYYCNSSPVVLNGVVFGGGTKLTVL
On to B1, for which the binding entry is given as “binds”.
